These are yes or no findings as the source states them, for the method shown. Some results given as binding are weak or reduced against the parent protein; the word gives no strength. Where a sequence is shown, tags or fusion partners need not be part of it.
Key:
ANGPTL8-V5 (human) = target: T1, ANGPTL8-V5 (human) (UniProt Q6UXH0); assay: AlphaLISA on CHO-K1 cell media with ANGPTL3-myc and ANGPTL8-V5 (anti-V5 acceptor beads, biotinylated anti-myc antibody and streptavidin donor beads)
T1 sequence: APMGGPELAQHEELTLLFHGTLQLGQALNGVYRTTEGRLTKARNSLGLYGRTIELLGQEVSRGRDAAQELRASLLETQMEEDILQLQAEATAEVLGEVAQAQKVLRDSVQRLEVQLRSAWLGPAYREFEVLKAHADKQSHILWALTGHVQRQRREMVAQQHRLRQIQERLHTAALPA

ANGPTL3-myc [1] = target: T2, ANGPTL3-myc (UniProt Q9Y5C1); assay: summary of the AlphaLISA assay of Example 6
T2 sequence (looked up): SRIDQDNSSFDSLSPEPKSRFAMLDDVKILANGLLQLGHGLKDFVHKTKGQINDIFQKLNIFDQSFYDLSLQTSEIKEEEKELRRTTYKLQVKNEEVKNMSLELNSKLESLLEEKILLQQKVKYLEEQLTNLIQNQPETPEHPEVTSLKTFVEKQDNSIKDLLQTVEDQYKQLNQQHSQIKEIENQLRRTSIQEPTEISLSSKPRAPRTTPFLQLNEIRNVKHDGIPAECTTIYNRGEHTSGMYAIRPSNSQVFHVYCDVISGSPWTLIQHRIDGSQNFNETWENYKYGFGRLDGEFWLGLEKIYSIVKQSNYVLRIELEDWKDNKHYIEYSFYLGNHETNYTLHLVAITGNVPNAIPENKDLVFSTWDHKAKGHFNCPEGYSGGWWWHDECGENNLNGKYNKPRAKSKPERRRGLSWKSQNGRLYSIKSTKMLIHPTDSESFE

ANGPTL3-myc [2] = target: T2, ANGPTL3-myc; assay: AlphaLISA proximity assay, anti-V5 acceptor beads and biotinylated anti-myc with streptavidin donor beads

B1: ANGPTL3-myc (ligand, UniProt Q9Y5C1 17-460, looked up, not shown: small tags and cut ends)
chain: SRIDQDNSSFDSLSPEPKSRFAMLDDVKILANGLLQLGHGLKDFVHKTKGQINDIFQKLNIFDQSFYDLSLQTSEIKEEEKELRRTTYKLQVKNEEVKNMSLELNSKLESLLEEKILLQQKVKYLEEQLTNLIQNQPETPEHPEVTSLKTFVEKQDNSIKDLLQTVEDQYKQLNQQHSQIKEIENQLRRTSIQEPTEISLSSKPRAPRTTPFLQLNEIRNVKHDGIPAECTTIYNRGEHTSGMYAIRPSNSQVFHVYCDVISGSPWTLIQHRIDGSQNFNETWENYKYGFGRLDGEFWLGLEKIYSIVKQSNYVLRIELEDWKDNKHYIEYSFYLGNHETNYTLHLVAITGNVPNAIPENKDLVFSTWDHKAKGHFNCPEGYSGGWWWHDECGENNLNGKYNKPRAKSKPERRRGLSWKSQNGRLYSIKSTKMLIHPTDSESFE
With B1 the binding (ANGPTL8-V5 (human)) was “binds”.

B2: ANGPTL8-V5 (ligand, not shown: small tags and cut ends)
chain: APMGGPELAQHEELTLLFHGTLQLGQALNGVYRTTEGRLTKARNSLGLYGRTIELLGQEVSRGRDAAQELRASLLETQMEEDILQLQAEATAEVLGEVAQAQKVLRDSVQRLEVQLRSAWLGPAYREFEVLKAHADKQSHILWALTGHVQRQRREMVAQQHRLRQIQERLHTAALPA
For B2, the binding (ANGPTL3-myc [1]) was “binds” and the binding (ANGPTL3-myc [2]) was “binds”.
